In patent US20110117021A1:
Residue numbers refer to the chain shown, from its start. No constants are given. Whether binding was seen depends on the method and setting. Some results given as binding are weak or reduced against the parent protein; the word gives no strength.

Amino acid sequences for entries named in this document (tags omitted).
UniProt Q16853: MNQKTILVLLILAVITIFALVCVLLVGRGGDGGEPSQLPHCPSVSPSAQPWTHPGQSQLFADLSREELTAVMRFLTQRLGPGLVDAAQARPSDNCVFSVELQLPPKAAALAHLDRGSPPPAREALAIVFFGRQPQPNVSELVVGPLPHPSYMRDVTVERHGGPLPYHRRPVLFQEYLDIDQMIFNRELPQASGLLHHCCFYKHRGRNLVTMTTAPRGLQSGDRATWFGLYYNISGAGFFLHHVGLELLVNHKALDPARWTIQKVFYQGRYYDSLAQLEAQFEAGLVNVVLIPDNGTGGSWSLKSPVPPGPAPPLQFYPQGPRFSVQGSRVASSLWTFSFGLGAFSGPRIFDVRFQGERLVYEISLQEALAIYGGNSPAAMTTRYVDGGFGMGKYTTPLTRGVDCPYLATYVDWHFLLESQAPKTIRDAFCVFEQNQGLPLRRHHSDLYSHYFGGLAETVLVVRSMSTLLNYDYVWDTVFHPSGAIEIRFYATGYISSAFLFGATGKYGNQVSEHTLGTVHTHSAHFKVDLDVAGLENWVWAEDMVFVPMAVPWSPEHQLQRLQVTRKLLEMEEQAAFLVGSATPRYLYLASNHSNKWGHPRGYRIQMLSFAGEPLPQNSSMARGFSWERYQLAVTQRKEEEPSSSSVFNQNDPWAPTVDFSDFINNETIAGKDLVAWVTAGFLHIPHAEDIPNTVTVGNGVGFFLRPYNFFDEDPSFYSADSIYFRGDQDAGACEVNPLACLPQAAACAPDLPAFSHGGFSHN

Target: recombinant human Vascular Adhesion Protein-1 (rhVAP-1), purified from CHO cells (human) (UniProt Q16853)
Experiment: time-resolved immunofluorometric assay, plate coated with rhVAP-1

B1: fully human anti-VAP-1 monoclonal antibody 8C10 (hybridoma-derived) (antibody, human IgG1, V domains shown)
VH: QVQLVESGGGVVQPGRSLRLSCAASGFTFFSYAMHWVRQTPGKGLEWVAVIWFDGSNENYVDSVKGRFTISRDNSKNTLYLQMNTLRAEDTAVYYCARDAWSYFDYWGQGTLVTVSS
VL: VIQLTQSPSSLSASVGDRVTITCRASQGISRALAWYQQKPGKGPKLLIYDASSLESGVPSRFSGSGSGTDFTLTISSLQPEDFATYYCQQFNSYPLTFGGGTKVEIK
binding: binds

B2: fully human anti-VAP-1 monoclonal antibody 3F10 (hybridoma-derived) (antibody, human IgG1, V domains shown)
VH: B1 VH with F30S, T40A, I51L, N59D, V61A, T85S, A100G, S102G
VL: B1 VL with V1A, G43A, S53N, S56R, Y94F
binding: binds
